Source: article doi:10.1101/2024.03.15.585069

Target: T1, GSRhino-TAP-tagged ICU11 (INCURVATA11) (Arabidopsis thaliana) (UniProt Q3ED68)
T1 sequence: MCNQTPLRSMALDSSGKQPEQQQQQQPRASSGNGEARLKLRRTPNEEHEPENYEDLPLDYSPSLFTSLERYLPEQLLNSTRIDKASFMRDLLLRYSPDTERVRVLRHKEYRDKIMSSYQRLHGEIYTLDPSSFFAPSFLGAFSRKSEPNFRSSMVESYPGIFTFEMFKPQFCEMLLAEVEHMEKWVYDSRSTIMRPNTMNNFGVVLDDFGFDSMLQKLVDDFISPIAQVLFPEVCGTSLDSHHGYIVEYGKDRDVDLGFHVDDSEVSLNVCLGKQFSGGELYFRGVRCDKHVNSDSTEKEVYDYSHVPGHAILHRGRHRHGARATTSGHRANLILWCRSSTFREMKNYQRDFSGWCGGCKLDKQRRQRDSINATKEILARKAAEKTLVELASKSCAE
Test: affinity purification with mass spectrometry

B1: EMBRYONIC FLOWER 1 (EMF1) (protein, UniProt Q9LYD9 1-1096)
chain: MGSSIKINSISIDLAGAANEIDMVKCDHFSMRGFVAETRERDLRKCWPFSEESVSLVDQQSYTLPTLSVPKFRWWHCMSCIKDIDAHGPKDCGLHSNSKAIGNSSVIESKSKFNSLTIIDHEKEKKTDIADNAIEEKVGVNCENDDQTATTFLKKARGRPMGASNVRSKSRKLVSPEQVGNNRSKEKLNKPSMDISSWKEKQNVDQAVTTFGSSEIAGVVEDTPPKATKNHKGIRGLMECDNGSSESINLAMSGLQRRKSRKVRLLSELLGNTKTSGGSNIRKEESALKKESVRGRKRKLLPENNYVSRILSTMGATSENASKSCDSDQGNSESTDSGFDRTPFKGKQRNRRFQVVDEFVPSLPCETSQEGIKEHDADPSKRSTPAHSLFTGNDSVPCPPGTQRTERKLSLPKKKTKKPVIDNGKSTVISFSNGIDGSQVNSHTGPSMNTVSQTRDLLNGKRVGGLFDNRLASDGYFRKYLSQVNDKPITSLHLQDNDYVRSRDAEPNCLRDFSSSSKSSSGGWLRTGVDIVDFRNNNHNTNRSSFSNLKLRYPPSSTEVADLSRVLQKDASGADRKGKTVMVQEHHGAPRSQSHDRKETTTEEQNNDDIPMEIVELMAKNQYERCLPDKEEDVSNKQPSQETAHKSKNALLIDLNETYDNGISLEDNNTSRPPKPCSSNARREEHFPMGRQQNSHDFFPISQPYVPSPFGIFPPTQENRASSIRFSGHNCQWLGNLPTVGNQNPSPSSFRVLRACDTCQSVPNQYREASHPIWPSSMIPPQSQYKPVSLNINQSTNPGTLSQASNNENTWNLNFVAANGKQKCGPNPEFSFGCKHAAGVSSSSSRPIDNFSSESSIPALHLLSLLDPRLRSTTPADQHGNTKFTKRHFPPANQSKEFIELQTGDSSKSAYSTKQIPFDLYSKRFTQEPSRKSFPITPPIGTSSLSFQNASWSPHHQEKKTKRKDTFAPVYNTHEKPVFASSNDQAKFQLLGASNSMMLPLKFHMTDKEKKQKRKAESCNNNASAGPVKNSSGPIVCSVNRNPADFTIPEPGNVYMLTGEHLKVRKRTTFKKKPAVCKQDAMKQTKKPVCPPTQNA
  binding: binds

B2: TELOMERE REPEAT BINDING 1 (TRB1), endogenous (protein, UniProt Q8VWK4 1-300)
chain: MGAPKQKWTQEEESALKSGVIKHGPGKWRTILKDPEFSGVLYLRSNVDLKDKWRNMSVMANGWGSREKSRLAVKRTFSLPKQEENSLALTNSLQSDEENVDATSGLQVSSNPPPRRPNVRLDSLIMEAIATLKEPGGCNKTTIGAYIEDQYHAPPDFKRLLSTKLKYLTSCGKLVKVKRKYRIPNSTPLSSHRRKGLGVFGGKQRTSSLPSPKTDIDEVNFQTRSQIDTEIARMKSMNVHEAAAVAAQAVAEAEAAMAEAEEAAKEAEAAEAEAEAAQAFAEEASKTLKGRNICKMMIRA
  binding: binds

B3: TRB3, endogenous (protein, UniProt Q9M2X3 1-295)
chain: MGAPKLKWTPEEETALKAGVLKHGTGKWRTILSDPVYSTILKSRSNVDLKDKWRNISVTALWGSRKKAKLALKRTPLSGSRQDDNATAITIVSLANGDVGGQQIDAPSPPAGSCEPPRPSTSVDKIILEAITSLKRPFGPDGKSILMYIEENFKMQPDMKRLVTSRLKYLTNVGTLVKKKHKYRISQNYMAEGEGQRSPQLLLEGNKENTPKPEENGVKNLTKSQVGGEVMIMGMTEKEAAAAAARAVAEAEFAMAEAEEAAREADKAEAEAEAAHIFAKAAMKAVKYRMHSQTR
  binding: binds

B4: CUPULIFORMIS2 (CP2), endogenous (protein, UniProt P0DO23 1-394)
chain: MSSEQREGSQETTTTTVEGNGTIAGQNSHSAAPTTLRATSTMVSCQRLRLNPNNEHRPDSYEDLQLDFPNSVYSSLEKYLPPNMLVSNRDEKIKFMTDIMLRHLPHGERSRAQRHSDYRLKITTNYQPLHKELYTLVPTVCFVPAFLKAINENTEESFRNIISEPSPGVFVFDMLQPSFCEMMLAEIDNFERWVGETKFRIMRPNTMNKYGAVLDDFGLDTMLDKLMEGFIRPISKVFFSDVGGATLDSHHGFVVEYGKDRDVDLGFHVDDSEVTLNVCLGNQFVGGELFFRGTRCEKHVNTATKADETYDYCHIPGQAVLHRGRHRHGARATTCGHRVNMLLWCRSSVFRELKTHHKDFSSWCGECFCEKRDEKVRSIDALRKKLFKPRQTQA
  binding: no binding

Results are given in words; binding and its absence hold for the method and conditions named. In cells and extracts the contact can be indirect. A yes stands for co-enrichment or nearness to the bait. Other partners may have been found. A no says only that the protein was not detected with the bait. Where a sequence is shown, tags or fusion partners need not be part of it.
